Laboratory results from patent publication US20250288585A1, “SYNERGISTIC COMPOSITIONS FOR ENHANCED HAIR GROWTH AND METHODS FOR TREATING HAIR LOSS” (The Johns Hopkins University, priority 2024, published 2025).
For at least one compound, name, drawing or mass did not settle the structure.

Test: Precipitation of minoxidil in liquid compositions
Assay type: physicochemical

Nc1cc(N2CCCCC2)nc(N)[n+]1[O-] [minoxidil]
concentration above which minoxidil precipitates into a solid: higher than 7 % w/w
